# Assay results taken from US9765295B2, “Composition for culturing sanal and sanal culturing method using the same” (Samsung Electronics Co., Ltd., priority 2014, dated 2017).
# Experiment: Assaying adrenalin and noradrenaline in primo fluid, urine, blood plasma and lymphatic fluid (Epinephrine/Norepinephrine ELISA Kit)
# Design: species or system rat
# Conditions: for concentration in primo fluid: endogenous level, FIG. 4 / FIG. 5; for concentration in primo fluid relative to concentration in blood plasma: primo fluid vs blood plasma; for concentration in primo fluid relative to concentration in lymphatic fluid: primo fluid vs lymphatic fluid; for concentration in primo fluid relative to concentration in urine: primo fluid vs urine
Structure (SMILES),concentration in primo fluid,concentration in primo fluid relative to concentration in blood plasma,concentration in primo fluid relative to concentration in lymphatic fluid,concentration in primo fluid relative to concentration in urine
NC[C@H](O)c1ccc(O)c(O)c1 [noradrenaline],about 138 ng/mL,at least 6.5 times,at least about four times,at least 13 times
CNCC(O)c1ccc(O)c(O)c1 (centres unmarked) [adrenalin],about 78 ng/mL,at least 15 times,at least about four times,at least 15 times
